{"source": "patent US12383538B2", "about": "“Use of mTOR inhibitors for prevention of intestinal polyp growth and cancer” (priority 2013, dated 2025)", "origin": "cited, not measured here", "system": "colorectal adenomas", "settings": "adults with FAP, 6-month trial", "note": "At least one compound was matched to its structure with a doubt left.", "data": [{"smiles": "Cc1ccc(-c2cc(C(F)(F)F)nn2-c2ccc(S(N)(=O)=O)cc2)cc1", "note": "[celecoxib]", "values": [{"measurement": "effect on colorectal adenomas", "value": "significantly reduced colorectal adenomas"}]}]}
